Values quoted from earlier work as cited in US20230190748A1, “COMPOSITIONS FOR TREATMENT OF AGED DISEASES” (GERO PTE. LTD., priority 2020, published 2023).
For at least one compound, name, drawing or mass did not settle the structure.

Target: EGFR/ErbB1 (Homo sapiens, UniProt P00533)
Design: key to the marks not given beside the values
Details: class symbols + to ++++ and √; legend not given; cited from earlier work

C=CC(=O)Nc1cccc(Oc2nc(Nc3ccc(N4CCN(C)CC4)cc3)ncc2Cl)c1 [WZ3146]
EGFR/ErbB1: ++++
